Taken from: PubChem BioAssay AID1159591 (NIAID, 2016)
Assay: 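Which TLR signalling genes macrophages need for R848-driven Tnf promoter activity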. System: mouse RAW264.7 G9 macrophage reporter clone (GFP-p65, Tnf promoter-mCherry). Knock-down reagent: single siRNA against mouse genes. Duration: cells assayed 48 to 72 hours after siRNA transfection; R848 for 16 hours before fixing. Challenge: R848 (TLR7/8 agonist) for 16 hours before fixation; dose not given. Measured: 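mCherry Tnf promoter reporter in nuclei imaged after 16 hours of R848, background removed, robust z relative to non-targeting controls using plate median and MAD, replicate average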. Scale: mean Tnf reporter z-score: higher = stronger Tnf promoter reporter signal than controls. Hit rule: 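Activity score from absolute z: steps above 1, 1.5, 2 and 2.5 give 25 to 100; active cut not stated, but active genes here sit near z -1.5 or below, or 1.5 or above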. Meaning of the calls: active = reporter clearly up or down; inactive = little reporter change.
Shown is an unselected part of 756 deposited reagents. Over the whole deposit, 130 (17%) got an active call. 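Active calls include both lower and higher Tnf reporter signal.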 The numbers tell different reagents against one gene apart. Not stated in the record: the amount of reagent.

| gene | reagent no. | mean Tnf reporter z-score | outcome |
| --- | --- | --- | --- |
| Tab1 (TGF-beta activated kinase 1/MAP3K7 binding protein 1) | 1 | -0.187 | inactive |
| Tab1 (TGF-beta activated kinase 1/MAP3K7 binding protein 1) | 2 | -1.94 | active |
| Tab1 (TGF-beta activated kinase 1/MAP3K7 binding protein 1) | 3 | -0.868 | inactive |
| Tab1 (TGF-beta activated kinase 1/MAP3K7 binding protein 1) | 4 | -0.47 | inactive |
| Tab1 (TGF-beta activated kinase 1/MAP3K7 binding protein 1) | 5 | 1.34 | inactive |
| Tab1 (TGF-beta activated kinase 1/MAP3K7 binding protein 1) | 6 | -1.6 | active |
| Il1rl1 (interleukin 1 receptor-like 1) | 1 | 1.85 | active |
| Il1rl1 (interleukin 1 receptor-like 1) | 2 | -0.94 | inactive |
| Il1rl1 (interleukin 1 receptor-like 1) | 3 | -1.02 | inactive |
| Il1rl1 (interleukin 1 receptor-like 1) | 4 | 0.59 | inactive |
| Il1rl1 (interleukin 1 receptor-like 1) | 5 | -1.1 | inactive |
| Il1rl1 (interleukin 1 receptor-like 1) | 6 | -0.355 | inactive |
| Ly96 (lymphocyte antigen 96) | 1 | 0.954 | inactive |
| Ly96 (lymphocyte antigen 96) | 2 | -1.05 | inactive |
| Ly96 (lymphocyte antigen 96) | 3 | 0.299 | inactive |
| Ly96 (lymphocyte antigen 96) | 4 | 0.571 | inactive |
| Ly96 (lymphocyte antigen 96) | 5 | 0.226 | inactive |
| Ly96 (lymphocyte antigen 96) | 6 | 0.147 | inactive |
| Irak3 (interleukin-1 receptor-associated kinase 3) | 1 | -0.808 | inactive |
| Irak3 (interleukin-1 receptor-associated kinase 3) | 2 | -0.805 | inactive |
| Irak3 (interleukin-1 receptor-associated kinase 3) | 3 | 0.394 | inactive |
| Irak3 (interleukin-1 receptor-associated kinase 3) | 4 | 0.163 | inactive |
| Irak3 (interleukin-1 receptor-associated kinase 3) | 5 | 0.0156 | inactive |
| Irak3 (interleukin-1 receptor-associated kinase 3) | 6 | -0.427 | inactive |
| Myd88 (myeloid differentiation primary response gene 88) | 1 | -1.94 | active |
| Myd88 (myeloid differentiation primary response gene 88) | 2 | -2.28 | active |
| Myd88 (myeloid differentiation primary response gene 88) | 3 | -1.95 | active |
| Myd88 (myeloid differentiation primary response gene 88) | 4 | -2.54 | active |
| Myd88 (myeloid differentiation primary response gene 88) | 5 | -2.46 | active |
| Myd88 (myeloid differentiation primary response gene 88) | 6 | -0.0764 | inactive |
| Traf3 (TNF receptor-associated factor 3) | 1 | 0.00498 | inactive |
| Traf3 (TNF receptor-associated factor 3) | 2 | -1.1 | inactive |
| Traf3 (TNF receptor-associated factor 3) | 3 | -0.844 | inactive |
| Traf3 (TNF receptor-associated factor 3) | 4 | -0.274 | inactive |
| Traf3 (TNF receptor-associated factor 3) | 5 | -1.37 | inactive |
| Traf3 (TNF receptor-associated factor 3) | 6 | 0.49 | inactive |
| Traf6 (TNF receptor-associated factor 6) | 1 | -0.355 | inactive |
| Traf6 (TNF receptor-associated factor 6) | 2 | -1.86 | active |
| Traf6 (TNF receptor-associated factor 6) | 3 | -2.12 | active |
| Traf6 (TNF receptor-associated factor 6) | 4 | -0.488 | inactive |
| Traf6 (TNF receptor-associated factor 6) | 5 | -1.28 | inactive |
| Traf6 (TNF receptor-associated factor 6) | 6 | -1.4 | inactive |
| Mapk1 (mitogen-activated protein kinase 1) | 1 | -1.19 | inactive |
| Mapk1 (mitogen-activated protein kinase 1) | 2 | -2.12 | active |
| Mapk1 (mitogen-activated protein kinase 1) | 3 | -1.17 | inactive |
| Mapk1 (mitogen-activated protein kinase 1) | 4 | -0.804 | inactive |
| Mapk1 (mitogen-activated protein kinase 1) | 5 | 0.0882 | inactive |
| Mapk1 (mitogen-activated protein kinase 1) | 6 | -0.000574 | inactive |

The list goes on (8 carried over from the part before).
| gene | reagent no. | mean Tnf reporter z-score | outcome |
| --- | --- | --- | --- |
| Traf6 (TNF receptor-associated factor 6) | 5 | -1.28 | inactive |
| Traf6 (TNF receptor-associated factor 6) | 6 | -1.4 | inactive |
| Mapk1 (mitogen-activated protein kinase 1) | 1 | -1.19 | inactive |
| Mapk1 (mitogen-activated protein kinase 1) | 2 | -2.12 | active |
| Mapk1 (mitogen-activated protein kinase 1) | 3 | -1.17 | inactive |
| Mapk1 (mitogen-activated protein kinase 1) | 4 | -0.804 | inactive |
| Mapk1 (mitogen-activated protein kinase 1) | 5 | 0.0882 | inactive |
| Mapk1 (mitogen-activated protein kinase 1) | 6 | -0.000574 | inactive |
| Egr1 (early growth response 1) | 1 | -1.4 | inactive |
| Egr1 (early growth response 1) | 2 | -0.871 | inactive |
| Egr1 (early growth response 1) | 3 | -1.7 | active |
| Egr1 (early growth response 1) | 4 | 0.379 | inactive |
| Egr1 (early growth response 1) | 5 | -2.67 | active |
| Egr1 (early growth response 1) | 6 | -0.174 | inactive |
| Pik3r2 (phosphoinositide-3-kinase regulatory subunit 2) | 1 | 0.211 | inactive |
| Pik3r2 (phosphoinositide-3-kinase regulatory subunit 2) | 2 | -0.227 | inactive |
| Pik3r2 (phosphoinositide-3-kinase regulatory subunit 2) | 3 | -1.55 | active |
| Pik3r2 (phosphoinositide-3-kinase regulatory subunit 2) | 4 | 0.137 | inactive |
| Pik3r2 (phosphoinositide-3-kinase regulatory subunit 2) | 5 | 0.265 | inactive |
| Pik3r2 (phosphoinositide-3-kinase regulatory subunit 2) | 6 | -0.212 | inactive |
| Akt1 (Akt serine/threonine kinase 1) | 1 | 1.04 | inactive |
| Akt1 (Akt serine/threonine kinase 1) | 2 | -1.77 | active |
| Akt1 (Akt serine/threonine kinase 1) | 3 | 0.492 | inactive |
| Akt1 (Akt serine/threonine kinase 1) | 4 | 0.00249 | inactive |
| Akt1 (Akt serine/threonine kinase 1) | 5 | -1.11 | inactive |
| Akt1 (Akt serine/threonine kinase 1) | 6 | -0.198 | inactive |
| Ifnb1 (interferon beta 1, fibroblast) | 1 | 1.43 | inactive |
| Ifnb1 (interferon beta 1, fibroblast) | 2 | -1.31 | inactive |
| Ifnb1 (interferon beta 1, fibroblast) | 3 | -0.653 | inactive |
| Ifnb1 (interferon beta 1, fibroblast) | 4 | 0.683 | inactive |
| Ifnb1 (interferon beta 1, fibroblast) | 5 | -1.12 | inactive |
| Ifnb1 (interferon beta 1, fibroblast) | 6 | -1.02 | inactive |
| Btk (Bruton agammaglobulinemia tyrosine kinase) | 1 | -0.208 | inactive |
| Btk (Bruton agammaglobulinemia tyrosine kinase) | 2 | -1.06 | inactive |
| Btk (Bruton agammaglobulinemia tyrosine kinase) | 3 | -0.839 | inactive |
| Btk (Bruton agammaglobulinemia tyrosine kinase) | 4 | -0.666 | inactive |
| Btk (Bruton agammaglobulinemia tyrosine kinase) | 5 | -2.45 | active |
| Btk (Bruton agammaglobulinemia tyrosine kinase) | 6 | -3.12 | active |
| Nfkb1 | 1 | -0.9 | inactive |
| Nfkb1 | 2 | -2.2 | active |
| Nfkb1 | 3 | -0.441 | inactive |
| Nfkb1 | 4 | -0.497 | inactive |
| Nfkb1 | 5 | -1.4 | inactive |
| Nfkb1 | 6 | -0.671 | inactive |
| Pik3r3 (phosphoinositide-3-kinase regulatory subunit 3) | 1 | -0.894 | inactive |
| Pik3r3 (phosphoinositide-3-kinase regulatory subunit 3) | 2 | 0.917 | inactive |
| Pik3r3 (phosphoinositide-3-kinase regulatory subunit 3) | 3 | 0.0601 | inactive |
| Pik3r3 (phosphoinositide-3-kinase regulatory subunit 3) | 4 | -0.483 | inactive |
| Pik3r3 (phosphoinositide-3-kinase regulatory subunit 3) | 5 | 0.397 | inactive |
| Pik3r3 (phosphoinositide-3-kinase regulatory subunit 3) | 6 | -0.69 | inactive |
| Ptk2b (PTK2 protein tyrosine kinase 2 beta) | 1 | -0.064 | inactive |
| Ptk2b (PTK2 protein tyrosine kinase 2 beta) | 2 | 1.17 | inactive |
| Ptk2b (PTK2 protein tyrosine kinase 2 beta) | 3 | -1.02 | inactive |
| Ptk2b (PTK2 protein tyrosine kinase 2 beta) | 4 | -0.452 | inactive |
| Ptk2b (PTK2 protein tyrosine kinase 2 beta) | 5 | 1.16 | inactive |
| Ptk2b (PTK2 protein tyrosine kinase 2 beta) | 6 | -0.407 | inactive |
| Tollip (toll interacting protein) | 1 | 0.174 | inactive |
| Tollip (toll interacting protein) | 2 | -1.17 | inactive |
| Tollip (toll interacting protein) | 3 | -2.09 | active |
| Tollip (toll interacting protein) | 4 | 0.333 | inactive |
| Tollip (toll interacting protein) | 5 | 0.52 | inactive |
| Tollip (toll interacting protein) | 6 | -3.9 | active |
| Dusp2 (dual specificity phosphatase 2) | 1 | -0.0903 | inactive |
| Dusp2 (dual specificity phosphatase 2) | 2 | -0.831 | inactive |
| Dusp2 (dual specificity phosphatase 2) | 3 | 1.22 | inactive |
| Dusp2 (dual specificity phosphatase 2) | 4 | 0.129 | inactive |
| Dusp2 (dual specificity phosphatase 2) | 5 | -1.03 | inactive |
| Dusp2 (dual specificity phosphatase 2) | 6 | -0.105 | inactive |
| Elk4 (ETS transcription factor ELK4) | 1 | -0.887 | inactive |
| Elk4 (ETS transcription factor ELK4) | 2 | 0.24 | inactive |
| Elk4 (ETS transcription factor ELK4) | 3 | -0.795 | inactive |
| Elk4 (ETS transcription factor ELK4) | 4 | 0.304 | inactive |
| Elk4 (ETS transcription factor ELK4) | 5 | -0.39 | inactive |
| Elk4 (ETS transcription factor ELK4) | 6 | -0.766 | inactive |
